PubChem BioAssay AID743121 | NCATS, 2013
In all, the deposit lists about 26,000 reagents; this is an unselected part. 167 of them (0.63%) were called active. 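Calls are per gene from RSA p-values that are not deposited; an individual active-marked siRNA can sensitise only weakly.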 The numbers tell different reagents against one gene apart. No sequences are given here.

Aim: 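Genes whose silencing strengthens cell killing by camptothecin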 (primary screen)
System: MDA-MB-231 cells, a human breast cancer line
Knock-down reagent: single siRNA against human genes, 20 nM siRNA (0.8 pmol per well)
Time to read-out: 120 h (drug added 48 h after transfection, read 72 h later)
Challenge: camptothecin 20 nM (about EC30) for 72 h; vehicle 0.1% DMSO in parallel plates
Measured: 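Cell viability by ATP luminescence (CellTiter-Glo) as % of non-targeting siRNA wells, and the log2 ratio of viability without drug over viability with camptothecin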
Direction: log2 vehicle/camptothecin viability: higher = stronger sensitisation to camptothecin; viability with camptothecin and viability without drug: higher = more viable cells
Call rule: 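Active genes have an RSA gene-level p-value below 0.001, computed from the ratios of their separate siRNAs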

gene knocked down | reagent no. | log2 vehicle/camptothecin viability | viability with camptothecin (% of control) | viability without drug (% of control) | call
NOG | 1 | -0.407 | 47.6 | 35.9 | inactive
NOG | 2 | -0.0926 | 98.7 | 92.6 | inactive
NOG | 3 | -0.0576 | 93.2 | 89.6 | inactive
NOG | 4 | -0.213 | 116 | 100 | inactive
S1PR5 | 1 | 0.545 | 51.8 | 75.6 | inactive
S1PR5 | 2 | -0.0312 | 23.2 | 22.7 | inactive
S1PR5 | 3 | 0.807 | 45.8 | 80.1 | inactive
S1PR5 | 4 | -0.32 | 95.6 | 76.6 | inactive
TAS2R1 | 1 | -0.195 | 98.6 | 86.1 | inactive
TAS2R1 | 2 | 0.0214 | 97 | 98.5 | inactive
TAS2R1 | 3 | 0.178 | 48.4 | 54.7 | inactive
TAS2R1 | 4 | 0.206 | 63.6 | 73.3 | inactive
NEFH | 1 | -0.303 | 22.8 | 18.5 | inactive
NEFH | 2 | -0.0962 | 88.2 | 82.5 | inactive
NEFH | 3 | -0.249 | 76.3 | 64.2 | inactive
NEFH | 4 | -0.535 | 43.3 | 29.9 | inactive
TP53I3 | 1 | 0.275 | 61.3 | 74.2 | inactive
TP53I3 | 2 | 0.0187 | 60.3 | 61.1 | inactive
TP53I3 | 3 | 0.28 | 54.8 | 66.5 | inactive
TP53I3 | 4 | 0.151 | 65.1 | 72.3 | inactive

An excerpt from above, showing only “viability with camptothecin (% of control)”:
TAS2R1 #1 = 98.6
TAS2R1 #2 = 97
TAS2R1 #3 = 48.4
TAS2R1 #4 = 63.6
NEFH #1 = 22.8
NEFH #2 = 88.2
NEFH #3 = 76.3

The list goes on:
gene knocked down | reagent no. | log2 vehicle/camptothecin viability | viability with camptothecin (% of control) | viability without drug (% of control) | call
ASB3 | 1 | 0.368 | 71.8 | 92.7 | inactive
ASB3 | 2 | -0.105 | 101 | 93.6 | inactive
ASB3 | 3 | 0.265 | 55 | 66.1 | inactive
ASB3 | 4 | -0.235 | 103 | 87.3 | inactive
FRZB | 1 | -0.146 | 59.7 | 54 | inactive
FRZB | 2 | -0.101 | 38 | 35.5 | inactive
FRZB | 3 | -0.365 | 25.2 | 19.5 | inactive
FRZB | 4 | -0.0194 | 36.5 | 36 | inactive
CACNB4 | 1 | 0.571 | 64.7 | 96.2 | inactive
CACNB4 | 2 | -0.219 | 45.8 | 39.3 | inactive
CACNB4 | 3 | -0.685 | 97.6 | 60.7 | inactive
PPP2R5C | 1 | 0.175 | 28.5 | 32.2 | inactive
PPP2R5C | 2 | -0.19 | 108 | 95 | inactive
PPP2R5C | 3 | -0.731 | 96.3 | 58 | inactive
PPP2R5C | 4 | -0.203 | 106 | 91.6 | inactive
RPS6KL1 | 1 | -0.775 | 67.1 | 39.2 | inactive
RPS6KL1 | 2 | 0.109 | 82.5 | 88.9 | inactive
RPS6KL1 | 3 | -0.444 | 67.3 | 49.4 | inactive
RPS6KL1 | 4 | -0.174 | 44.6 | 39.5 | inactive
KCNA5 | 1 | -0.344 | 90.8 | 71.5 | inactive
KCNA5 | 2 | -0.528 | 56.7 | 39.3 | inactive
KCNA5 | 3 | -0.188 | 56.3 | 49.4 | inactive
KCNA5 | 4 | -0.613 | 81.4 | 53.2 | inactive
ROS1 | 1 | -0.214 | 97.2 | 83.8 | inactive
ROS1 | 2 | -0.819 | 61.1 | 34.6 | inactive
ROS1 | 3 | -0.073 | 97.9 | 93 | inactive
ROS1 | 4 | 0.444 | 34.3 | 46.6 | inactive
